Results published in PubChem BioAssay AID248 (DTP/NCI, 2004).
The list does not hold the whole screen: it gathers tests that were run many times, whatever their T/C, doses with no T/C, and many T/C values between a quarter and a half above the control. Other doses and runs of a compound stand elsewhere. T/C: endpoint of the treated group in % of that of the vehicle group. Some doses have a count of surviving animals in place of a T/C: the source files T/C as zero there, which appears to mark a toxic dose or a test without result, not a measured value. Some doses without a T/C left all or most animals alive at the check, yet need not have been tolerated: survival well below the control is almost never listed, so the zero probably covers shortened survival too. Counts of survivors are from the toxicity check (mostly the fifth day) where no day follows; animals may have died later. Schedules are NCI's codes, taken here to give the interval after Q, in days (D) or hours (H), and the number of doses after X. Some entries were tested several times; their values stand side by side, smallest first. Some schedules carry Z or #; the key to these is not given. Where survival is the endpoint, this PubChem deposit counts one and a half times the control or more as active, and values a quarter to a half above the control carry no call in these data; other NCI protocols may use other cut-offs.

System: L1210 leukemia ip in BDF1 mice, survival T/C
Test: NCI In Vivo Anticancer Drug Screen. Data for tumor model L1210 Leukemia (intraperitoneal) in B6D2F1 (BDF1) mice
Conditions: T/C endpoint: mean survival time, higher T/C = longer survival
[1] = dose: 200.0 mg/kg/injection, schedule: Q01DX001 (ip), vehicle: saline
[2] = dose: 400.0 mg/kg/injection, schedule: Q01DX001 (ip), vehicle: saline
[3] = dose: 200.0 mg/kg/injection, schedule: Q01DX009 (ip), vehicle: Klucel (hydroxypropylcellulose) (HPC)
[4] = dose: 400.0 mg/kg/injection, schedule: Q01DX009 (ip), vehicle: Klucel (hydroxypropylcellulose) (HPC)
[5] = dose: 400.0 mg/kg/injection, schedule: Q04DX003 (ip), vehicle: saline with Tween-80
[6] = dose: 80.0 mg/kg/injection, schedule: Q01DX001 (ip), vehicle: saline
[7] = dose: 100.0 mg/kg/injection, schedule: Q01DX001 (ip), vehicle: saline
[8] = dose: 100.0 mg/kg/injection, schedule: Q01DX009 (ip), vehicle: Klucel (hydroxypropylcellulose) (HPC)
[9] = dose: 400.0 mg/kg/injection, schedule: Q04DX003 (ip), vehicle: saline
[10] = dose: 100.0 mg/kg/injection, schedule: Q01DX009 (ip), vehicle: saline
[11] = dose: 200.0 mg/kg/injection, schedule: Q01DX009 (ip), vehicle: saline
[12] = dose: 100.0 mg/kg/injection, schedule: Q04DX003 (ip), vehicle: saline
[13] = dose: 1.5 mg/kg/injection, schedule: Q01DX001 (ip), vehicle: saline

Q: With O=[N+]([O-])c1ccc(Cl)cc1/C=N/Nc1c2ccccc2nc2ccccc12 as the molecule, how does the survivor count [1] read?
A: The survivor count was 4 of 4.

Q: What about the survivor count [2] of the same molecule?
A: The survivor count was 4 of 4.

Q: For COc1cc(Cl)ccc1NC(=O)Oc1ccc2c(C)cc(=O)oc2c1, which survivor count [3] is on record?
A: Its survivor count is 5 of 6.

Q: And the survivor count [4]?
A: The survivor count was 0 of 6.

Q: COc1cccc2ccccc12 was tested. Which survivor count [5] did it give?
A: Its survivor count is 2 of 6.

Q: Which survivor count [6] does the source give for CCN(CC)CCCNc1c2ccccc2nc2ccccc12 here?
A: The survivor count was 4 of 4.

Q: Which survivor count [4] does the source give for O=C1c2nc3ccccc3nc2C(=O)N1O here?
A: The survivor count was 6 of 6.

Q: With O=C(NCc1ccccc1)c1ccccc1/C(=N/O)c1ccccc1 as the molecule, how does the survivor count (dose: 100.0 mg/kg/injection, schedule: Q01DX009 (ip), vehicle: saline with Tween-80) read?
A: The survivor count was 6 of 6.

Q: And the survivor count (dose: 400.0 mg/kg/injection, schedule: Q01DX009 (ip), vehicle: saline with Tween-80)?
A: Its survivor count is 6 of 6.

Q: How did the survivor count (dose: 16.0 mg/kg/injection, schedule: Q01DX Z (ip), vehicle: carboxymethylcellulose (CMC)) turn out when CN=C(NCc1ccccc1)c1ccc(NC(=O)c2ccc(C(=O)Nc3ccc(C(=NC)NCc4ccccc4)cc3)c(Cl)c2)cc1 was run?
A: Its survivor count is 0 of 6.

Q: For NNc1ccccc1-c1nc(N)nc(N)n1, which survivor count (dose: 75.0 mg/kg/injection, schedule: Q01DX001 (ip), vehicle: other) is on record?
A: Its survivor count is 2 of 6.

Q: And the survivor count (dose: 150.0 mg/kg/injection, schedule: Q01DX001 (ip), vehicle: other)?
A: The survivor count was 1 of 6.

Q: And the survivor count (dose: 300.0 mg/kg/injection, schedule: Q01DX001 (ip), vehicle: other)?
A: The survivor count was 0 of 6.

Q: COc1ccc(N2CCNCC2)cc1 was tested. Which survivor count [6] did it give?
A: The survivor count was 0 of 6.

Q: And the survivor count [7]?
A: The survivor count was 0 of 6.

Q: What about the survivor count [1] of the same molecule?
A: The survivor count was 0 of 6.

Q: And the survivor count [2]?
A: Its survivor count is 0 of 6.

Q: Which survivor count [8] does the source give for Cc1cccc(Cl)c1NC(=O)Nc1cccc(C(=O)O)c1 here?
A: Its survivor count is 6 of 6.

Q: Nc1ccc(S(=O)(=O)O)c2cccc(O)c12 was tested. Which survivor count (dose: 400.0 mg/kg/injection, schedule: Q04DX002 (ip), vehicle: carboxymethylcellulose (CMC)) did it give?
A: Its survivor count is 1 of 3.

Q: For CCOC(=O)C(=Cc1ccccc1Cl)C(=O)OCC, which survivor count [4] is on record?
A: The survivor count was 0 of 6.

Q: What about the survivor count (dose: 400.0 mg/kg/injection, schedule: Q04DX003 (ip), vehicle: Klucel (hydroxypropylcellulose) (HPC)) of the same molecule?
A: The survivor count was 6 of 6.

Q: Which results are given for C[N+]1(C)CCOCC1?
A: survivor count (dose: 75.0 mg/kg/injection, schedule: Q01DX001 (ip), vehicle: saline): 2 of 6; survivor count (dose: 150.0 mg/kg/injection, schedule: Q01DX001 (ip), vehicle: saline): 0 of 6; survivor count (dose: 300.0 mg/kg/injection, schedule: Q01DX001 (ip), vehicle: saline): 0 of 6

Q: With Oc1ccc(Sc2ccc(O)cc2)cc1 as the molecule, how does the survivor count [9] read?
A: The survivor count was 2 of 6.

Q: With O=NN(CCCl)C(=O)Nc1ccc2[nH]c3ccccc3c2c1 as the molecule, how does the T/C (dose: 30.0 mg/kg/injection, schedule: Q01DX009 (ip), vehicle: Klucel (hydroxypropylcellulose) (HPC)) read?
A: The T/C was 126 % of control.

Q: And the T/C (dose: 45.0 mg/kg/injection, schedule: Q01DX009 (ip), vehicle: Klucel (hydroxypropylcellulose) (HPC))?
A: The T/C was 129 % of control.

Q: And the T/C (dose: 45.0 mg/kg/injection, schedule: Q01DX009 (ip), vehicle: carboxymethylcellulose (CMC))?
A: The T/C was 139 % of control.

Q: What about the T/C (dose: 65.0 mg/kg/injection, schedule: Q01DX009 (ip), vehicle: Klucel (hydroxypropylcellulose) (HPC)) of the same molecule?
A: The T/C was 134 and 142 % of control.

Q: What about the T/C [8] of the same molecule?
A: The T/C was 126 % of control.

Q: What about the T/C (dose: 130.0 mg/kg/injection, schedule: Q01DX009 (ip), vehicle: Klucel (hydroxypropylcellulose) (HPC)) of the same molecule?
A: Its T/C is 138 % of control.

Q: What about the T/C (dose: 177.0 mg/kg/injection, schedule: Q01DX009 (ip), vehicle: carboxymethylcellulose (CMC)) of the same molecule?
A: The T/C was 140 % of control.

Q: What about the T/C (dose: 400.0 mg/kg/injection, schedule: Q01DX009 (ip), vehicle: carboxymethylcellulose (CMC)) of the same molecule?
A: The T/C was 148 % of control.

Q: How did the T/C (dose: 200.0 mg/kg/injection, schedule: Q04DX002 (ip), vehicle: other) turn out when CCCCCCC(=O)C1OC1CCCCCCCCC(=O)O (configuration not stated) was run?
A: The T/C was 125 % of control.

Q: Which results are given for OCCS?
A: T/C [7]: 144 % of control; survivor count [2]: 2 of 4

Q: How did the survivor count (dose: 100.0 mg/kg/injection, schedule: Q01DX001 (ip), vehicle: saline with Tween-80) turn out when CCCCCCP(=O)(CCCCCC)C1CCCCC1 was run?
A: Its survivor count is 3 of 3.

Q: And the survivor count (dose: 400.0 mg/kg/injection, schedule: Q01DX001 (ip), vehicle: saline with Tween-80)?
A: Its survivor count is 0 of 3.

Q: For Cc1ccc(S(=O)(=O)/N=C2\SCc3ccccc32)cc1, which survivor count [10] is on record?
A: Its survivor count is 0 of 3.

Q: What about the survivor count [11] of the same molecule?
A: The survivor count was 0 of 3.

Q: For N=C(N)CCc1ccccc1, which survivor count (dose: 300.0 mg/kg/injection, schedule: Q04DX003 (ip), vehicle: saline) is on record?
A: The survivor count was 1 of 6.

Q: How did the survivor count (dose: 50.0 mg/kg/injection, schedule: Q01DX005 (ip), vehicle: saline) turn out when Cn1cnc([N+](=O)[O-])c1[Se]c1ncnc2c1c(C#N)cn2C1OC(CO)C(O)C1O (configuration not stated) was run?
A: The survivor count was 1 of 6.

Q: What about the survivor count (dose: 100.0 mg/kg/injection, schedule: Q01DX005 (ip), vehicle: saline) of the same molecule?
A: The survivor count was 1 of 6.

Q: And the survivor count (dose: 200.0 mg/kg/injection, schedule: Q01DX005 (ip), vehicle: saline)?
A: The survivor count was 0 of 6.

Q: Which survivor count [9] does the source give for NNC(=O)CC(=O)NN here?
A: The survivor count was 6 of 6.

Q: With CN1CCN(C2CCCCc3ccccc32)CC1 (configuration not stated) as the molecule, how does the survivor count (dose: 200.0 mg/kg/injection, schedule: Q04DX003 (ip), vehicle: saline with Tween-80) read?
A: Its survivor count is 0 of 6.

Q: What about the survivor count [5] of the same molecule?
A: Its survivor count is 0 of 6.

Q: What does the source list for C[N+](C)(C)C1CC1?
A: survivor count [10]: 0 of 6; survivor count [12]: 3 of 6; survivor count [11]: 0 of 6; survivor count (dose: 200.0 mg/kg/injection, schedule: Q04DX003 (ip), vehicle: saline): 0 of 6; survivor count [9]: 0 of 6

Q: O=C1C(NCCO)=C(N2CC2)C(=O)C(NCCO)=C1N1CC1 was tested. Which T/C (dose: 0.04 mg/kg/injection, schedule: Q01DX009 (ip), vehicle: saline) did it give?
A: Its T/C is 133 % of control.

Q: And the T/C (dose: 0.09 mg/kg/injection, schedule: Q01DX009 (ip), vehicle: saline)?
A: Its T/C is 135 and 140 % of control.

Q: And the T/C (dose: 0.09 mg/kg/injection, schedule: Q04DX003 (ip), vehicle: saline)?
A: The T/C was 125 % of control.

Q: What about the T/C (dose: 0.18 mg/kg/injection, schedule: Q04DX003 (ip), vehicle: saline) of the same molecule?
A: Its T/C is 136 and 144 % of control.

Q: And the T/C (dose: 0.37 mg/kg/injection, schedule: Q04DX003 (ip), vehicle: saline)?
A: The T/C was 127 % of control.

Q: And the T/C (dose: 0.75 mg/kg/injection, schedule: Q01DX001 (ip), vehicle: saline)?
A: The T/C was 141 % of control.

Q: What about the T/C (dose: 0.75 mg/kg/injection, schedule: Q01DX009 (ip), vehicle: saline) of the same molecule?
A: Its T/C is 176, 228, 234, 305 % of control.

Q: And the T/C (dose: 0.75 mg/kg/injection, schedule: Q04DX003 (ip), vehicle: saline)?
A: The T/C was 146 % of control.

Q: What about the T/C [13] of the same molecule?
A: The T/C was 139 % of control.

Q: What about the survivor count [13] of the same molecule?
A: Its survivor count is 3 of 6.

Q: And the survivor count (dose: 1.5 mg/kg/injection, schedule: Q01DX009 (ip), vehicle: saline)?
A: The survivor count was 6 of 6.

Q: What about the survivor count (dose: 3.0 mg/kg/injection, schedule: Q01DX001 (ip), vehicle: saline) of the same molecule?
A: Its survivor count is 3 of 6 and 4 of 6.

Q: What about the survivor count (dose: 3.0 mg/kg/injection, schedule: Q01DX009 (ip), vehicle: saline) of the same molecule?
A: The survivor count was 5 of 6 and 6 of 6.

Q: What about the survivor count (dose: 3.12 mg/kg/injection, schedule: Q04DX003 (ip), vehicle: saline) of the same molecule?
A: The survivor count was 6 of 6.

Q: What about the survivor count (dose: 6.0 mg/kg/injection, schedule: Q01DX001 (ip), vehicle: saline) of the same molecule?
A: Its survivor count is 2 of 6 and 5 of 6.

Q: What about the survivor count (dose: 6.0 mg/kg/injection, schedule: Q04DX003 (ip), vehicle: saline) of the same molecule?
A: Its survivor count is 4 of 6 and 5 of 6.

Q: What about the survivor count (dose: 6.25 mg/kg/injection, schedule: Q04DX003 (ip), vehicle: saline) of the same molecule?
A: The survivor count was 1 of 6.

Q: And the survivor count (dose: 12.0 mg/kg/injection, schedule: Q01DX001 (ip), vehicle: saline)?
A: Its survivor count is 3 of 6 and 6 of 6.

Q: What about the survivor count (dose: 12.5 mg/kg/injection, schedule: Q04DX003 (ip), vehicle: saline) of the same molecule?
A: Its survivor count is 5 of 6.

Q: What about the survivor count (dose: 25.0 mg/kg/injection, schedule: Q04DX003 (ip), vehicle: saline) of the same molecule?
A: The survivor count was 4 of 6.

Q: And the survivor count (dose: 50.0 mg/kg/injection, schedule: Q04DX003 (ip), vehicle: saline)?
A: The survivor count was 1 of 6.

Q: What about the survivor count [12] of the same molecule?
A: Its survivor count is 0 of 6.

Q: Which survivor count [8] does the source give for O=N[O-].O=N[O-].[NH2-].[NH2-].[Pt+2] here?
A: The survivor count was 0 of 6.

Q: What about the survivor count [3] of the same molecule?
A: Its survivor count is 0 of 6.

Q: And the survivor count [4]?
A: The survivor count was 0 of 6.
